This note sets out measurements from paper doi:10.1101/272500.

Amino acid sequences for entries named in this document (tags omitted).
UniProt Q05195: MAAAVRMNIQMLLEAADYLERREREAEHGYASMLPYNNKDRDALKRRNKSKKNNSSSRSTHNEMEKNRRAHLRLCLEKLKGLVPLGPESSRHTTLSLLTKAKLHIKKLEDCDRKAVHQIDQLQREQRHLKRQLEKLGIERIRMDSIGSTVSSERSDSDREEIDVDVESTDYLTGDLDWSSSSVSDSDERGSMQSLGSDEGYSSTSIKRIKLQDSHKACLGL
UniProt P01106: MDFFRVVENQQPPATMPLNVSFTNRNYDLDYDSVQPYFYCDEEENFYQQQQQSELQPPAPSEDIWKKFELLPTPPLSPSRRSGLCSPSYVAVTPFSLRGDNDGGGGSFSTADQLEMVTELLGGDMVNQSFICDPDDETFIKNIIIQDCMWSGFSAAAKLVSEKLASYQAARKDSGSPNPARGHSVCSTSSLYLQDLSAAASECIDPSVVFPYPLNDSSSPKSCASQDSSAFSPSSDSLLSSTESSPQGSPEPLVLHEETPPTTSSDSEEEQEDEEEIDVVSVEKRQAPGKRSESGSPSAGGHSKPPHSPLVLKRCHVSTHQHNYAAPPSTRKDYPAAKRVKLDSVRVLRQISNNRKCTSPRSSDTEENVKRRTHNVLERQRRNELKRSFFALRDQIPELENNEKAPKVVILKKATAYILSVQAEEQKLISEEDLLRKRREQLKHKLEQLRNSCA
UniProt Q969H0: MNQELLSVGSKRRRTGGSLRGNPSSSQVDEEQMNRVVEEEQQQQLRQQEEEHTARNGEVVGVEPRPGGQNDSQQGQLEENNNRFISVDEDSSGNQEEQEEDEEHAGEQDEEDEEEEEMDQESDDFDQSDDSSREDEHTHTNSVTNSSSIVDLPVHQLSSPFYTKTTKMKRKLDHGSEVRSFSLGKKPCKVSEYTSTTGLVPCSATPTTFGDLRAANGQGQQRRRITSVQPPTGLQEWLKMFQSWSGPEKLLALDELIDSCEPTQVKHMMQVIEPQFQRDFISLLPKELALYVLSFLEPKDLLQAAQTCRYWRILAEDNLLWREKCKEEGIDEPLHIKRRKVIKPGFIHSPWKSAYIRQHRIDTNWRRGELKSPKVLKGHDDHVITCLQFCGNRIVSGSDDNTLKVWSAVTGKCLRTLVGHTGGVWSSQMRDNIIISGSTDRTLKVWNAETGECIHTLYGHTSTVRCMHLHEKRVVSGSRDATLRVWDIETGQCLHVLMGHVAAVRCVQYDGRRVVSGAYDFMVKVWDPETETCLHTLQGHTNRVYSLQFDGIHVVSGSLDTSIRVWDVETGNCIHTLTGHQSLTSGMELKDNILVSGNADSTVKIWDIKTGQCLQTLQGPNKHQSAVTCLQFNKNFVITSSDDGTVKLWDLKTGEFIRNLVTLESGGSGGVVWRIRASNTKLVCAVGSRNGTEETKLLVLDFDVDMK

Experiment [1] has as its target MXD1 (human (endogenous in SCC25)) (UniProt Q05195). The experiment in a line: co-IP.
The target in experiment [2] is T1, vitamin D receptor (human (endogenous in SCC25)) (UniProt P11473).
T1 sequence: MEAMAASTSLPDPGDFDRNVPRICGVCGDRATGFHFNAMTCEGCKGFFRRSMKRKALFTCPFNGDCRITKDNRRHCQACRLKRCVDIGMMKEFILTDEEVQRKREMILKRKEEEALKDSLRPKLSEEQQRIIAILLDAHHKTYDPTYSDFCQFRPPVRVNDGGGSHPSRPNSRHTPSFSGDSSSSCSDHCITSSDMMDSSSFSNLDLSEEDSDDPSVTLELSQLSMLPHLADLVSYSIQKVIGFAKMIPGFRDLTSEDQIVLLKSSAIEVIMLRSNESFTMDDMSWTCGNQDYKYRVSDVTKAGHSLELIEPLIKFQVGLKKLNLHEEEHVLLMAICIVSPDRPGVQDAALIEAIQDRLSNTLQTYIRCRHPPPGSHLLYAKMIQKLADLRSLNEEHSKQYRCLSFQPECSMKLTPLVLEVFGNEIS
The experiment in a line: co-IP.

Experiment [3] has as its target c-MYC (human (endogenous in SCC25)) (UniProt P01106). Nature of the experiment: co-IP.
In experiment [4] the target is T2, GST fused to the full-length VDR (UniProt P11473).
T2 sequence: T1 sequence
The experiment in a line: pull-down.

Experiment [5] deals with MXD1 (human (endogenous in SCC25)) (UniProt Q05195). The experiment in a line: co-IP. The source holds these as a separate data set.
Experiment [6] addresses c-MYC (human (endogenous in SCC25)) (UniProt P01106). Nature of the experiment: co-IP. The source holds these as a separate data set.

Read-outs that look alike come from different tables or passages of the source. Results are given in words; binding and its absence hold for the method and conditions named. Binding seen in cells or lysates may run through a third protein. Some entries that bind do so weakly or less than the wild type. For some of these results: Where a sequence is shown, tags or fusion partners need not be part of it.

Consider “Flag-tagged FBW7 (from UniProt Q969H0 1-707)”, for which the binding entry in experiment [1], in experiment [2] and in experiment [3] was “binds” throughout. Take “MXD1, in vitro translated (from UniProt Q05195 1-221)”: in experiment [4], the binding entry is reported as “binds”. The same measure, in the same setting: the same measure for “c-MYC, in vitro translated (from UniProt P01106 1-454)”: “binds”.

B1: vitamin D receptor (receptor, UniProt P11473 1-427)
chain: T1 sequence
With B1, the binding entry in experiment [5] and in experiment [6] was “binds” in each case.
